The whole screen tested about 320,000 compounds, of which about 2,100 (0.66%) were called active. Inconclusive results, whose numbers are uncertain, are shown with a selection of clear calls. The call rests on the fitted dose curve; in most records, active means well fitted inhibition curve with a large enough effect in the signal ratio, with a control signal flat (not every such curve was filed as active); inconclusive means small, poorly fitted or top-dose-only effect, or effect the other way, or a change in a side signal; inactive means flat fitted curve, though single readings scatter; the % refers to the signal ratio. Potencies of inconclusive entries are doubtful fits and often do not repeat.
Experiment: qHTS Assay for Lipid Storage Modulators in Drosophila S3 Cells
Details: BODIPY lipid droplet fluorescence, 18-24 h, cells fed with added oleic acid; lipid storage change, negative = inhibition: at 46.1 µM (top of the series) unless noted
Procedure, shortened: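 Drosophila S3 cells got compounds at several concentrations plus oleic acid (400 uM solution). Laser-scanning cytometry with 488 nm excitation read lipid droplets at 500-530 nm and cells at 575-640 nm. Percent activity was relative to 20 uM Triacsin C.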
On the % scale 0 is the no-effect control and ±100 the full control effect; potency means the concentration at half of the fitted maximal effect.

Lipid storage change, negative = inhibition, inconclusive:
O=C(NC12CC3CC(CC(C3)C1)C2)C1CC(=O)N(c2ccccc2)C1 (configuration not stated) -23.8%
NC(=S)N/N=C/c1ccccc1[N+](=O)[O-] 13.1%
Cc1cccc(N2CCN(C(=O)c3ccncc3)CC2)c1C 52.1%
COC(=O)c1cc2cc(OC)ccc2n1C -11.9%
Nc1ncnc2nc(SCCC(=O)O)[nH]c12 -26%
C/C(=N\NC(=O)CSCc1ccc(Cl)cc1)c1ccc(NC(=O)c2ccccc2)cc1 -9.19%
O=C(CCSc1nnc(-c2ccco2)o1)N1CCOCC1 -23.2%
CC(C)C(NC(=O)c1ccccc1)C(=O)OCC(=O)N1CCCCC1 (configuration not stated) -5.96%
C=C1CCC(OC(C)=O)C2(C)CCC3C(C)C(=O)OC3C12O (configuration not stated) 7.07%
CCCOc1cccc(C(=O)N(Cc2cccs2)C2CCS(=O)(=O)C2)c1 (configuration not stated) -9.25%
O=C(O)c1cnc(-c2ccccc2)nc1Sc1ccc(Cl)cc1 8.9%
COc1cc(Cl)c(C)cc1NC(=O)COC(=O)CCc1nc2ccccc2c(=O)[nH]1
C/C(=N\Nc1ccc(C)c(Cl)c1)c1cccnc1 51.3%
CC(C)CN(C(=O)COC(=O)CN1C(=O)c2ccccc2C1=O)c1c(N)n(Cc2ccccc2)c(=O)[nH]c1=O
O=C(N/N=C/c1ccc(Cl)cc1Cl)c1n[nH]c2c1CCCC2 -0.859%
O=c1cc(C(F)(F)F)[nH]c2c(C(F)(F)F)cccc12 4.71%

Ordered by SMILES length (smallest number first): 3 of the compounds above
Lipid storage change, negative = inhibition, inconclusive:
O=C(CCSc1nnc(-c2ccco2)o1)N1CCOCC1 -23.2%
Cc1cccc(N2CCN(C(=O)c3ccncc3)CC2)c1C 52.1%
COc1cc(Cl)c(C)cc1NC(=O)COC(=O)CCc1nc2ccccc2c(=O)[nH]1

Next part:

Potency, inconclusive:
CC(C)[C@H](NS(=O)(=O)c1ccccc1)C(=O)OCC(=O)Nc1ccc2c(c1)OCO2 2.06 µM [rising, partial curve, poor fit]
CCOc1ccc(C(=O)CN2CCN(S(=O)(=O)c3ccc(OC)cc3)CC2)cc1 29.1 µM [activator, single point]
Cc1ccc(OCC(=O)N2CCN(C(=O)c3ccc([N+](=O)[O-])cc3)CC2)cc1 29.1 µM [falling, single point]
CCOC(=O)CCc1c(C)c2ccc(OCc3nn[nH]n3)c(C)c2oc1=O 0.231 µM [falling, full curve]
CCOCCCN(C(=O)Cn1nnc(-c2ccc(OC)c(OC)c2)n1)C(CC)C(=O)NC1CCCC1 (configuration not stated) 16.4 µM [rising, partial curve]

outcome, inactive:
CCOC(=O)c1ccc(NS(=O)(=O)c2c(C)[nH]c(C)c2C(=O)N2CCCCC2)cc1 inactive [at 46.1 µM]

From PubChem BioAssay AID2685 (National Center for Advancing Translational Sciences (NCATS), 2010)
